The values below come from US6537804B1 (Board of Regents, The University of Texas Systems, priority 1995, dated 2003).

The nature of this data set: general procedure: Boc solid-phase peptide synthesis. Conditions: whole synthesis, sequence analysis or HPLC.

With “350-SSRVpS*PSPTTYRMFRDK-366 (SSRVSPSPTTYRMFRDK; phosphoserine 354)”, the “final purity (method not given)” value is recorded as “about 95% purity”.
